Assay results reported in the supplement of paper PMC10735217.
Values joined by “and” are separate entries in the source; they are usually repeats but may differ in a detail not shown here. Identical values can stand only once. Counter-ions that a name gives are not always drawn. The list shows a part of the results. Repeats in this data set agree poorly, so a single value says little.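 In a drug-repurposing library screen, luminescence reads luciferase driven by eight TEAD-binding elements, stably integrated into human kidney-derived cells. Compounds scoring over five robust Z scores above the plate mean are called hits.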

Test system: HEK293A TEAD-LUC reporter
Assay: TEAD-luciferase reporter activity (YAP activation), robust Z score vs plate; higher = stronger YAP/TEAD activation
Details: 24 h

| SMILES | TEAD-luciferase reporter activity (compound concentration: 200 nM) | TEAD-luciferase reporter activity (compound concentration: 2 uM) | TEAD-luciferase reporter activity (compound concentration: 10 uM) |
| --- | --- | --- | --- |
| Nc1c(-c2cccc(C(F)(F)F)c2)nsc1C(=O)O [amflutizole] | inactive: -0.0424 | inactive: 2.78 | inactive: -0.455 |
| NCCS | inactive: 0.134 | – | inactive: 1.05 |
| NCCS [Mercaptamine hydrochloride] | – | inactive: 1.21 | – |
| O=C(O)c1cccc(-c2cccc(NCCNC[C@H](O)c3cccc(Cl)c3)c2)c1 [solabegron hydrochloride] | inactive: -0.0639 | inactive: -1.21 | inactive: 0.266 |
| NC(CCCOc1cccc2ccccc12)N=O (centres undefined) | inactive: -1.94 | inactive: -1.07 | inactive: 0.247 |
| O=c1[nH]c2c(O)ccc(CCNCCNS(=O)(=O)CCOCCc3ccccc3)c2s1 | inactive: -2.88 | inactive: -1.46 | inactive: -1.51 |
| Cc1cccc(C)c1NC(=O)CC12CCCN1CCC2 [pilsicainide hydrochloride] | inactive: 0.295 | inactive: -0.717 | inactive: 0.933 |
| Cc1nnc(SCC2=C(C(=O)O)N3C(=O)C(NC(=O)Cn4cnnn4)C3SC2)s1 (centres undefined) [cefazolin dibenzylamine] | inactive: 0.184 | inactive: -0.732 | inactive: 0.44 |
| OC(CCN1CCCCC1)(c1ccccc1)c1ccccc1 | inactive: -1.79 | inactive: -0.722 | inactive: -0.994 |
| CN1CCC(c2c[nH]c3ccc(NC(=O)c4ccc(F)cc4)cc23)CC1 | inactive: 0.495 | inactive: 0.254 | inactive: 1.58 |
| COC[C@H]1C[C@](C#N)(Cn2cccn2)N(C(=O)c2ccc(C(C)(C)C)c(OC)c2)[C@H]1c1nccs1 | inactive: 0.387 | inactive: 1.26 | inactive: -1.28 |
| Cc1[nH]c(/C=C2\C(=O)Nc3ccc(F)cc32)c(C)c1C(=O)N[C@H]1CCN(C(=O)N(C)C)C1 | inactive: 1.03 | inactive: 1.88 | inactive: 1.44 |
| CC[C@H]1OC(=O)[C@H](C)[C@@H](O[C@H]2C[C@@](C)(OC)[C@@H](O)[C@H](C)O2)[C@H](C)[C@@H](O[C@@H]2O[C@H](C)C[C@H](N(C)C)[C@H]2O)[C@@]2(C)CC(C)=C(O2)[C@H](C)[C@@H](O)[C@]1(C)O | – | inactive: 0.202 | – |
| CC[C@H]1OC(=O)[C@H](C)[C@@H](O[C@H]2C[C@@](C)(OC)[C@@H](O)[C@H](C)O2)[C@H](C)[C@@H](O[C@@H]2O[C@H](C)C[C@H](N(C)C)[C@H]2O)[C@@]2(C)CC(C)=C(O2)[C@H](C)[C@@H](O)[C@]1(C)O [Erythromycin A enol ether] | inactive: 0.865 | – | inactive: -0.391 |
| CCC(=O)c1ccc2c(c1)N(CCCN(C)C)c1ccccc1S2 [Propionylpromazine] | inactive: -1.33 | – | inactive: 2.09 |
| CCC(=O)c1ccc2c(c1)N(CCCN(C)C)c1ccccc1S2 | – | inactive: 0.396 | – |
| CCCCCCCCCCCCCCCCCC(O)c1ccc(C(=O)O)c(Cl)c1 (centres undefined) [lodelaben] | inactive: -1.43 | inactive: 2.48 | inactive: 2.39 |
| CN(C)[C@@H]1C(O)=C(C(N)=O)C(=O)C2(O)C(O)=C3C(=O)c4c(ccc(N)c4O)C[C@H]3C[C@@H]12 (some centres undefined) | inactive: -1.43 | – | inactive: 2.49 |

| SMILES | TEAD-luciferase reporter activity (compound concentration: 200 nM) | TEAD-luciferase reporter activity (compound concentration: 2 uM) | TEAD-luciferase reporter activity (compound concentration: 10 uM) |
| --- | --- | --- | --- |
| Nc1c2c(nc3c1CCCC3)CCCC2 [Octahydrogenacridine succinate] | inactive: -0.523 | inactive: -0.786 | inactive: 2.83 |
| C=COCC(F)(F)F | inactive: 0.08 | inactive: 2.51 | inactive: 0.429 |
| CCCCCCCN(CC)CCCC(O)c1ccc(NS(C)(=O)=O)cc1 (centres undefined) [Ibutilide Fumarate_:_2016-03-02: ibutilide fumarate] | – | inactive: -0.624 | – |
| CCCCCCCN(CC)CCCC(O)c1ccc(NS(C)(=O)=O)cc1 (centres undefined) [Ibutilide Fumarate] | inactive: -0.815 | – | inactive: -0.675 |
| O=C1Nc2ccccc2/C1=C1/Nc2ccccc2C1=O [indirubin] | – | inactive: 1.94 | – |
| O=C1Nc2ccccc2/C1=C1/Nc2ccccc2C1=O | inactive: -0.641 | – | inactive: 2.68 |
| O=C(/C=C/c1ccc2c(c1)OCO2)OCc1cc(=O)c(O)co1 | inactive: -0.0787 | inactive: -0.787 | inactive: 1.62 |
| CC(C)NCC(O)c1ccc(O)c2ncccc12 (centres undefined) | inactive: -0.307 | inactive: -0.81 | inactive: -0.427 |
| CCOC(=O)c1ccc(NC(=O)CC)cc1NC(=O)c1ccc(C(=O)O)cc1 | inactive: 0.182 | inactive: 1.33 and inactive: -0.723 | inactive: -0.0429 |
| CC(C)(C)C(=O)OCOP(=O)(OCOC(=O)C(C)(C)C)C(CCCc1cccc(Oc2ccccc2)c1)S(=O)(=O)O (centres undefined) | inactive: -2.26 | inactive: 3.35 | inactive: 2.89 |
| CCNCc1c(CSC)cnc(C)c1O | inactive: 2.65 | inactive: 1.01 | inactive: -0.636 |
| CC(COc1ccccc1Cc1ccccc1)N1CCCCC1 (centres undefined) | inactive: 0.873 | – | inactive: 2.46 |
| CC(COc1ccccc1Cc1ccccc1)N1CCCCC1 (centres undefined) [benproperine] | – | inactive: 0.395 | – |
| CN(O)C(=O)CCc1ccc2c(c1)Cc1ccccc1CO2 | inactive: -0.0363 | inactive: 0.995 | inactive: -0.743 |
| C=CCc1ccc(O)c(OC)c1 [Eugenol] | inactive: 0.247 | inactive: 0.765 | inactive: -0.00285 |
| Cc1ccccc1C(=O)N1CC/C(=N/OS(=O)(=O)[O-])c2ccc(Cl)cc21 [Alilusem potassium] | inactive: 0.00971 | inactive: -1.29 | inactive: 1.22 |
| CC(C)Oc1ccc(S(=O)(=O)N2CCN(c3ccc(-c4ncco4)c(OCC(=O)O)c3)CC2)cc1 [Asapiprant] | inactive: -1.19 | inactive: -0.666 | inactive: -1.4 |
| CC(C)(CCn1c(=O)[nH]c2ccccc21)NCC(O)COc1cccc2ccccc12 (centres undefined) [adimolol] | inactive: -0.571 | inactive: -0.124 | inactive: 0.00666 |
